This is an account of results in article PMC4693281.

No constants are given. Whether binding was seen depends on the method and setting. In cells and extracts the contact can be indirect. Some binding calls cover weakened binding; strength is not graded here. Where a sequence is shown, tags or fusion partners need not be part of it.

What all share (experiment): pull-down; FLAG- and S-tagged ZP4 co-expressed with His- and S-tagged ZP3 fragment in Sf9 cells (48 h, 27 °C); culture supernatant mixed with TALON resin 1 h at room temperature, washed three times with PBS; ZP4 in pellet and supernatant detected by anti-FLAG Western blot; ZP4 expressed alone as background
On the technique in general: In western blotting, separated proteins are transferred to a membrane and probed.

The target of test [1] is T1, bovine ZP3 fragment Arg-32 to Arg-160, N-terminal His-tag and S-tag (bovine) (UniProt P48830).
T1 sequence: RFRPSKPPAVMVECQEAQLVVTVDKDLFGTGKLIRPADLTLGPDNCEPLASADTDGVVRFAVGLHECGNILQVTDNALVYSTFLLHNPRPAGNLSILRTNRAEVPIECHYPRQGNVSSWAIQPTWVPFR

For test [2], the target named is T2, bovine ZP3 fragment 32-178 with Asn-146 mutated to Asp, N-terminal His-tag and S-tag (bovine) (UniProt P48830).
T2 sequence (chain, N-glycosylated Asn-124): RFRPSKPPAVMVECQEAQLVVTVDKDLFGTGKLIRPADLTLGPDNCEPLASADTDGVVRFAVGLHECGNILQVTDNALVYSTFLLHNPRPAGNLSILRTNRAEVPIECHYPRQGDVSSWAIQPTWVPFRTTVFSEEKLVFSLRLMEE

The target in test [3] is T3, bovine ZP3 fragment Arg-32 to Glu-178, N-terminal His-tag and S-tag (bovine) (UniProt P48830).
T3 sequence (chain, N-glycosylated Asn-124 and Asn-146): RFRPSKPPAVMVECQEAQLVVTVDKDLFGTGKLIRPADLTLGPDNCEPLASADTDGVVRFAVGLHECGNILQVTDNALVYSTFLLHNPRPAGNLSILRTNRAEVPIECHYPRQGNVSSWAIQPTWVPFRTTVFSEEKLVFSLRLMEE

For test [4], the target named is T4, bovine ZP3 fragment Arg-32 to Lys-168, N-terminal His-tag and S-tag (bovine) (UniProt P48830).
T4 sequence: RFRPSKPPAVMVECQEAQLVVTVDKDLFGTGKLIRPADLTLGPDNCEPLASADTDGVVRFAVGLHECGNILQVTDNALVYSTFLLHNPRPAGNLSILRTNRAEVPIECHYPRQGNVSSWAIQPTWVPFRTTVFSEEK

In test [5] the target is T5, bovine ZP3 C-terminal fragment Gln-144 to Arg-348, N-terminal His-tag and S-tag (bovine) (UniProt P48830).
T5 sequence: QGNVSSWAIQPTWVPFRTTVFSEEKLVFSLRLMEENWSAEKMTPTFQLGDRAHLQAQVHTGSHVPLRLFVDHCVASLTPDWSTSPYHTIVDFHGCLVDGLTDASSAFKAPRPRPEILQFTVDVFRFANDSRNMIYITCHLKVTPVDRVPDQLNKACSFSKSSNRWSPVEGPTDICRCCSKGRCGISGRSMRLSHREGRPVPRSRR

Test [6] addresses T6, bovine ZP3 fragment 32-178 with Asn-124 mutated to Asp, N-terminal His-tag and S-tag (bovine) (UniProt P48830).
T6 sequence (chain, N-glycosylated Asn-146): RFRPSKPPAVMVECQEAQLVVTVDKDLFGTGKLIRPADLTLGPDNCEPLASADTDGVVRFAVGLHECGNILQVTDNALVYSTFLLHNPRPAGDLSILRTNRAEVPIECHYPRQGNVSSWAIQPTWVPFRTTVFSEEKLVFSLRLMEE

Test [7] addresses T7, bovine ZP3 fragment Arg-32 to Thr-155, N-terminal His-tag and S-tag (bovine) (UniProt P48830).
T7 sequence: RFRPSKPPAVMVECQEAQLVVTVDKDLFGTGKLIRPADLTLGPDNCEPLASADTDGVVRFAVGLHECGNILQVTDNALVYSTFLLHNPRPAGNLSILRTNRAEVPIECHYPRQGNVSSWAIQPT

The target in test [8] is T8, bovine ZP3 fragment 32-149, N-terminal His-tag and S-tag (bovine) (UniProt P48830).
T8 sequence: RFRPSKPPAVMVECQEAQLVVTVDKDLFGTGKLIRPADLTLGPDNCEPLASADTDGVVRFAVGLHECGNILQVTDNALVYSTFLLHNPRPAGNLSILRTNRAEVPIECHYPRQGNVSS

Test [9] deals with T9, bovine ZP3 C-terminal fragment Glu-177 to Arg-348, N-terminal His-tag and S-tag (bovine) (UniProt P48830).
T9 sequence: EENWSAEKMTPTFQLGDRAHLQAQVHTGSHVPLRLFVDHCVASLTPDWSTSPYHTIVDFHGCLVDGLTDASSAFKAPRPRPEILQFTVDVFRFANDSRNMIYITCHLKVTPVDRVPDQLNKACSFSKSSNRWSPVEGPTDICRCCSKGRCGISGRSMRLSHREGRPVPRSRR

B1: bovine ZP4 (Lys-25 to Arg-464) with N-terminal FLAG-tag and S-tag (domain or fragment, UniProt Q9BH11 25-464)
chain: KVPEYPDELRCGLRSFQFTINPLSQETETPPVLVAWDNHGLPHSLQNDSDCGTWVSEGPGSSLVGEASYSGCYVTEWESYYIMTVGIERAGVSGSGAFIETKLFKCPVNLPDVPNAGLCDSVPVWDRLPCAPSPITQGDCKQLGCCYNSEEVISCYYGNTVTSHCTQDGHFSIAVSRNVTSPPLLLNSVHLAFRNDSECKPVMATHTFVLFRFPFTTCGTTKQITGKQAVYENELVAARDVRTWSRGSITRDSTFRLQVSCSYSASSSALPVNVQVLTLPPPLPETQPGNLTLELKIAKDKRYRSYYTASDYPVVKLLRDPIYVEVSIHQRTDPSLELRLDQCWATPGADALLQPQWPLLVNGCPYTGDNYQTKLIPVWEASDLPFPSHYQRFSISTFSFVDSVAKRALKGPVYLHCSASVCQPAGTPSCVTLCPARRRR
Take B1: the binding result in test [1], in test [2], in [3], in test [4], in [5] and in test [6] was “binds” in each case. Moreover, the binding entry in test [7] is “binds weakly”; in test [8], “binds weakly”; in test [9] it was “binds”.
